No constants are given. Whether binding was seen depends on the method and setting. Some results given as binding are weak or reduced against the parent protein; the word gives no strength.
Target: 人PD-L1抗原 (hPD-L1-his, Sino biological 10084-H08H-200) (human) (UniProt Q9NZQ7)
Test: SPR (Biacore T200), antibody captured by anti-human antibody on CM5, PD-L1-his as analyte

Protein sequences, listed by entry. Tags and fused reporters are not part of them. Lines headed by an entry give the natural chain unless they say otherwise; changes in a name come on top. Residues count along the entry.
UniProt Q9NZQ7, residues 19-239: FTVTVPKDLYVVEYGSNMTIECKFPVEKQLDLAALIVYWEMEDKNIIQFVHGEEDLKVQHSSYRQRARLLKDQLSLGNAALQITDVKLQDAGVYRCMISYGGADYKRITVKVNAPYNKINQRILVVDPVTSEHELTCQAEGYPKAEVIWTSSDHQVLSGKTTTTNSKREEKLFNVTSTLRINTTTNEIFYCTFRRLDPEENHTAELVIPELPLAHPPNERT

binding: binds
B1: hu-Chi1-3.4 (antibody, human IgG1, kappa, V domains shown)
VH: QVQLQESGPGLVKPSQTLSLTCTVSGYSITSDYWNWIRQHPGKGLEYIGYISYTGSTYYNPSLKSRVTISRDTSKNQFSLKLSSVTAADTAVYYCARGEAWDRRTLDYWGQGTLVTVSS
VL: DFQMTQSPSSLSASVGDRVTITCRASQDITNYLNWYQQKPDKAVKLLIYYTSRLHSGVPSRFSGSGSGTDFTLTISSLQPEDFATYYCQQVYTLPWTFGQGTKLEIKR

Source: WO2019109974A1
